Results are given in words; binding and its absence hold for the method and conditions named. In cells and extracts the contact can be indirect. Some binding calls cover weakened binding; strength is not graded here.
Assays:
[1] = molecular target: T1, TRAF3 Interacting Protein 2 (TRAF3IP2) (mouse (endogenous in MIN6 cells and mouse islets)) (UniProt Q8N7N6); experiment: co-IP; endogenous Co-IP followed by western blot (Fig. S7m, n); also cell lysates from MIN6 cells with overexpression of the lncRNA βFaar (Fig. 7o)
T1 sequence: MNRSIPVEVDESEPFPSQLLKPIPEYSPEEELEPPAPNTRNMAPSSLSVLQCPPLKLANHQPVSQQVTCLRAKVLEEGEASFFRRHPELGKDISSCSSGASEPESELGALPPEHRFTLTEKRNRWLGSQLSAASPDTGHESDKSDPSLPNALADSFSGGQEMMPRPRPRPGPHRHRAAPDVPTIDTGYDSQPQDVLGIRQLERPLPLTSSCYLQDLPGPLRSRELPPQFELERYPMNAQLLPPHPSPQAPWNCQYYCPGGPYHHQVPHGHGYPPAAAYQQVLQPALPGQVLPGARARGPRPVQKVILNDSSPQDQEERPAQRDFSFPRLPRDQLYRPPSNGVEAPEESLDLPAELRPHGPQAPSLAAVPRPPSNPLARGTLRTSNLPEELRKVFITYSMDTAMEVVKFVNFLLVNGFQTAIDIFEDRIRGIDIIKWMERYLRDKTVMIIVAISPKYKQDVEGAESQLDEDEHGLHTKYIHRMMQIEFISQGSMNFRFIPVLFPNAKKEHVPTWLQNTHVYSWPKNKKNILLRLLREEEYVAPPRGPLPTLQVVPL

Protein sequences, listed by entry. Tags and fused reporters are not part of them.
UniProt Q9CUN6: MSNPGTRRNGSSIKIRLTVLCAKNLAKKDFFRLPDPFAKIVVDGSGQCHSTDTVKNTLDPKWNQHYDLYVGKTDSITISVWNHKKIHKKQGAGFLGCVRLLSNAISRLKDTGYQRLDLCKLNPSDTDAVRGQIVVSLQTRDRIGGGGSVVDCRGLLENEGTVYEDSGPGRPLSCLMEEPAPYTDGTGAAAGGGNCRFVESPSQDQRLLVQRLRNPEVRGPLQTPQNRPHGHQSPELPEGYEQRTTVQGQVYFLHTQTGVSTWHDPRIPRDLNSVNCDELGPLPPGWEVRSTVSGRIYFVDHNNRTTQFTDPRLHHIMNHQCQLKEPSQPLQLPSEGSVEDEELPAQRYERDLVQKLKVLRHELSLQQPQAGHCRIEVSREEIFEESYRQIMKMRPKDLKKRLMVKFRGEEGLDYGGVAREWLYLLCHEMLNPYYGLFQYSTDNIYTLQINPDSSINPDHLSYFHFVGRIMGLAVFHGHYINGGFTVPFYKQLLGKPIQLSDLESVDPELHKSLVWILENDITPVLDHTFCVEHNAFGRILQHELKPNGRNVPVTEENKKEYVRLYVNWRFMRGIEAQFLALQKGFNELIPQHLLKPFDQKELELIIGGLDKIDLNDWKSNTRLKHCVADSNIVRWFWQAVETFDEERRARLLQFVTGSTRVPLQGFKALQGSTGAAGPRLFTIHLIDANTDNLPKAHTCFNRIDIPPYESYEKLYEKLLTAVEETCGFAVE

[2] = molecular target: T1, TRAF3 Interacting Protein 2 (TRAF3IP2) (mouse (endogenous in MIN6 cells and mouse islets)); experiment: co-IP; Co-IP followed by western blot, islets from len-βFaar mice (lentiviral overexpression of the lncRNA βFaar in vivo, n = 5; Fig. 7p)

SMAD specific E3 ubiquitin protein ligase 1 (SMURF1) (from UniProt Q9CUN6 1-731) (enzyme)
binding [1]: binds | binding [2]: binds

Reference: publication PMC8238983
